# Results are given in words; binding and its absence hold for the method and conditions named. Binding seen in cells or lysates may run through a third protein. Here binding means that the protein was enriched with, or labelled near, the bait; the list need not be complete.
# Amino acid sequences for entries named in this document (tags omitted).
# UniProt Q8CHK4: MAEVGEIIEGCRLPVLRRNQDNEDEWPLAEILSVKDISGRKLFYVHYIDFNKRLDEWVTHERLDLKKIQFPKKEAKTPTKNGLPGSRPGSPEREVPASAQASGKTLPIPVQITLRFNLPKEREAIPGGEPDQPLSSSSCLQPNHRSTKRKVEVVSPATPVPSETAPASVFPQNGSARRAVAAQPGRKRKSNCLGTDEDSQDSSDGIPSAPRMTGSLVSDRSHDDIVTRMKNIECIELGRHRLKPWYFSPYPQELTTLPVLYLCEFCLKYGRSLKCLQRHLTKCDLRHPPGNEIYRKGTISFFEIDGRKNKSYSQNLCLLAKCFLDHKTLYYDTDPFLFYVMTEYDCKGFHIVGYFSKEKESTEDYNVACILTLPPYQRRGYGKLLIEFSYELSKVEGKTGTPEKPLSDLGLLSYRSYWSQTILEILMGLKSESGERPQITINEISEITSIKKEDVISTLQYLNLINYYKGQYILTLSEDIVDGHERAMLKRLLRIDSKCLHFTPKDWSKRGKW
# UniProt Q91VJ4: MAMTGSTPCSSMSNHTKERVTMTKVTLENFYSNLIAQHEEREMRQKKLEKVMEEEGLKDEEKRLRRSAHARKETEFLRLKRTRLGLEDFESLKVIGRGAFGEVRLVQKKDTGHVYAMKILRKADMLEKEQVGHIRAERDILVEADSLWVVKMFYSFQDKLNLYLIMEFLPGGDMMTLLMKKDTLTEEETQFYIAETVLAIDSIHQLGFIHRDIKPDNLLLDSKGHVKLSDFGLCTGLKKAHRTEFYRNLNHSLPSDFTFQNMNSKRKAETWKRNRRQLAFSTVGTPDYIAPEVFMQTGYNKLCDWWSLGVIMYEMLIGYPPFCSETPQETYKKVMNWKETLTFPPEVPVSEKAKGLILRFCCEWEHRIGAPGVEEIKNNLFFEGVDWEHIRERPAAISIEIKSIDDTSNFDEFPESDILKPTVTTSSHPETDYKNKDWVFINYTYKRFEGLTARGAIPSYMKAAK
# UniProt Q8C9X6: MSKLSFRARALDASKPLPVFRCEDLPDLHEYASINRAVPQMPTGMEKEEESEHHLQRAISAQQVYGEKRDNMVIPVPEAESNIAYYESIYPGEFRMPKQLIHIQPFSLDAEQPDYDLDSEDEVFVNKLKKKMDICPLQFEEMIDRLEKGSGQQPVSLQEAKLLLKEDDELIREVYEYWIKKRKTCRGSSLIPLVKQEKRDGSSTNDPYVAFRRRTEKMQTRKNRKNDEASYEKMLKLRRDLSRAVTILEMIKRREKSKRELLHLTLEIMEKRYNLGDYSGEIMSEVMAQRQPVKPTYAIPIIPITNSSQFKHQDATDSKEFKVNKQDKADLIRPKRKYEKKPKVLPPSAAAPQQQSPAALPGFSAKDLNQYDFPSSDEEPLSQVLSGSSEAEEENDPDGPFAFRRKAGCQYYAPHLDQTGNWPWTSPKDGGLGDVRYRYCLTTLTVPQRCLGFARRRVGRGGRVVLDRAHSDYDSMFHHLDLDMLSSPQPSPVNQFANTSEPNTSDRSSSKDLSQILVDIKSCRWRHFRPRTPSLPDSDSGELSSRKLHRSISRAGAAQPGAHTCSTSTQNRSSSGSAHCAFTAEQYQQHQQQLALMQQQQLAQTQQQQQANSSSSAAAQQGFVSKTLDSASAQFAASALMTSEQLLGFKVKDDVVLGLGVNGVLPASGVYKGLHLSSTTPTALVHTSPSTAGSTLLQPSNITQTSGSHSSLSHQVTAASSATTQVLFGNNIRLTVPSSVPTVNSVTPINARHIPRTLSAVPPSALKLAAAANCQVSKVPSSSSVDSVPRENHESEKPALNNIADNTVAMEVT
# UniProt Q9WTM5: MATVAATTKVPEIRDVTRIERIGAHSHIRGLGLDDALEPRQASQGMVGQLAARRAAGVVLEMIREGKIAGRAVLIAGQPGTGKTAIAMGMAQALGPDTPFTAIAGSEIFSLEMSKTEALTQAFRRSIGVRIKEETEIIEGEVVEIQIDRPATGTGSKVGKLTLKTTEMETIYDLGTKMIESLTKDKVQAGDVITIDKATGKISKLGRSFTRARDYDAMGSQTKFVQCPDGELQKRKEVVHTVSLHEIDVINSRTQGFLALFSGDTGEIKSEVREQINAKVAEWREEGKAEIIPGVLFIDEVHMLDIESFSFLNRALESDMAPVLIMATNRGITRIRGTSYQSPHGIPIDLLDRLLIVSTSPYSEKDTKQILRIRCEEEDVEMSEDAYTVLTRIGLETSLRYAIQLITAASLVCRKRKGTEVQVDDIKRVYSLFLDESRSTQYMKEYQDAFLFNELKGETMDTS
# UniProt P60122: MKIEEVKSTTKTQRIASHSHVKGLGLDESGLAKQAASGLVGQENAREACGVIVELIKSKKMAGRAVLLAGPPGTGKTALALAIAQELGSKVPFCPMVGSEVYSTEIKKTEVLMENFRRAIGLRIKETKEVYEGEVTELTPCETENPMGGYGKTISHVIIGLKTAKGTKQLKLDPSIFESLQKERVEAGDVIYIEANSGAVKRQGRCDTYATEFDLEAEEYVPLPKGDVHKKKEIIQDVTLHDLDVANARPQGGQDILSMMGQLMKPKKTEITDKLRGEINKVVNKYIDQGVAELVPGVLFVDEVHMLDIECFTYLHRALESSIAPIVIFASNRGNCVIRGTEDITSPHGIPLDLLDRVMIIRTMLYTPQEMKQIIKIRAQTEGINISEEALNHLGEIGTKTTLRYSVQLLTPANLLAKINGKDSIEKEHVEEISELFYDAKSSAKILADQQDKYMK
# UniProt Q9R0Q4: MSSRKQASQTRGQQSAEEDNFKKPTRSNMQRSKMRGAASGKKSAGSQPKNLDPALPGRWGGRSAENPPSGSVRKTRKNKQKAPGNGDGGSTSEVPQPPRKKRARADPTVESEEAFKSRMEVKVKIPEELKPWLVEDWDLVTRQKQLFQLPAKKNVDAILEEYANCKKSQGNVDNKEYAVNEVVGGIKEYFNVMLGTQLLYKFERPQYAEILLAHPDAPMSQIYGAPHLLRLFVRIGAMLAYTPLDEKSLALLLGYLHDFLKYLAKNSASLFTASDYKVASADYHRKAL
# UniProt Q9CR11: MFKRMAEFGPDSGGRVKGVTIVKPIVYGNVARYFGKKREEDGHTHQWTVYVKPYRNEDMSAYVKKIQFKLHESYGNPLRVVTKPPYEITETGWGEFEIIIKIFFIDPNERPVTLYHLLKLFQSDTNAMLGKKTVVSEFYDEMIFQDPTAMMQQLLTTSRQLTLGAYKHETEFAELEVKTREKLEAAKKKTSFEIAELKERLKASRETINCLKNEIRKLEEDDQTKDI
# UniProt Q91WK0: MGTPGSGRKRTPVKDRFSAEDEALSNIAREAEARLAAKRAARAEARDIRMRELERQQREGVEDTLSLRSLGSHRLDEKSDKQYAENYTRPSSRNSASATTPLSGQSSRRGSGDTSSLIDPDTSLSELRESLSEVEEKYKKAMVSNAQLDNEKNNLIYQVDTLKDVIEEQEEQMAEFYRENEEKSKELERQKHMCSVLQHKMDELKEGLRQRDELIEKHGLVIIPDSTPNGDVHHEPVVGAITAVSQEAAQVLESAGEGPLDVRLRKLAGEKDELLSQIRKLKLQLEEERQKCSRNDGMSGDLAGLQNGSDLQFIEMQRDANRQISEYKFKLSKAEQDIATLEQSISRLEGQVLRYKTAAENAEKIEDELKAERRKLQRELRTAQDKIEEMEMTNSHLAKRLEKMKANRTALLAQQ
# UniProt Q9ERG0: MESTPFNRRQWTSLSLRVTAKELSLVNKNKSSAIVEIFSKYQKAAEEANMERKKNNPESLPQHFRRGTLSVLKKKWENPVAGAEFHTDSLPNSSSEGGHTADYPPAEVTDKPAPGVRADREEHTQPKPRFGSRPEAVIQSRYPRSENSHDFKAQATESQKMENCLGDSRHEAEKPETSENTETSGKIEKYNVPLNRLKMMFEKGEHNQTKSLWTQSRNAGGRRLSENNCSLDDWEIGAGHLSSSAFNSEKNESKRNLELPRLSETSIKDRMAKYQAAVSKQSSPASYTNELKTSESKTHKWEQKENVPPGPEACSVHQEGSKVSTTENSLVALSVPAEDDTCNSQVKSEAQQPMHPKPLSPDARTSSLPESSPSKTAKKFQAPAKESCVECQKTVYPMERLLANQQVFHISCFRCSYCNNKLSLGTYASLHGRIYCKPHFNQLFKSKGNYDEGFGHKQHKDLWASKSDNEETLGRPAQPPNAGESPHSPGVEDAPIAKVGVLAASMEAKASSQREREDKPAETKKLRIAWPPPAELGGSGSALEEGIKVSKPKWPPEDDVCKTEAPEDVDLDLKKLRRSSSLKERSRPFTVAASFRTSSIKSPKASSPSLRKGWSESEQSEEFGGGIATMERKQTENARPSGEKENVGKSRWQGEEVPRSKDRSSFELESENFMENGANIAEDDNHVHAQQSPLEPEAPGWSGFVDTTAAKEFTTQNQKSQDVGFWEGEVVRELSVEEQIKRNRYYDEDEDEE
# UniProt Q62481: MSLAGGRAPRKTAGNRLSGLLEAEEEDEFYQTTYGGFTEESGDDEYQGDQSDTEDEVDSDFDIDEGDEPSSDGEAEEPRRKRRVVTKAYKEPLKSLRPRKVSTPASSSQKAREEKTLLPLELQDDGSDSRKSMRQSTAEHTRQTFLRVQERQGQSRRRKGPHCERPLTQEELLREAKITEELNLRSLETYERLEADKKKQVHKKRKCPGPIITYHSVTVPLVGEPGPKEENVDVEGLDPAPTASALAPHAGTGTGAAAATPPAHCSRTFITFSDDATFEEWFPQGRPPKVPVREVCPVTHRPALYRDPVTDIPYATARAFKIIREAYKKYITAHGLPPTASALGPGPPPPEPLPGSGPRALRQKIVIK
# UniProt P99024: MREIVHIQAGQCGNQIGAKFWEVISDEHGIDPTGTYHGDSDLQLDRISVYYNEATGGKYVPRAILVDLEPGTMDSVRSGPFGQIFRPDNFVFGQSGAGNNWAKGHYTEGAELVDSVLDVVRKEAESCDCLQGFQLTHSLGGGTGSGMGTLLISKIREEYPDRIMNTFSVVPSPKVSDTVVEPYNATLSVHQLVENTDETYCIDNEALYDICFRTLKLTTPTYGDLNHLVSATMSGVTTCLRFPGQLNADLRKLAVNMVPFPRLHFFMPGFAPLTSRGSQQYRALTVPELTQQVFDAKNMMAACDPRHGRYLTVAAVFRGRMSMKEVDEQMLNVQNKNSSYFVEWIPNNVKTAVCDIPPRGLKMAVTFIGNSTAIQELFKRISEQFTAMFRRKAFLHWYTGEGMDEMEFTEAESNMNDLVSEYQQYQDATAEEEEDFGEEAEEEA
# UniProt Q8C0I4: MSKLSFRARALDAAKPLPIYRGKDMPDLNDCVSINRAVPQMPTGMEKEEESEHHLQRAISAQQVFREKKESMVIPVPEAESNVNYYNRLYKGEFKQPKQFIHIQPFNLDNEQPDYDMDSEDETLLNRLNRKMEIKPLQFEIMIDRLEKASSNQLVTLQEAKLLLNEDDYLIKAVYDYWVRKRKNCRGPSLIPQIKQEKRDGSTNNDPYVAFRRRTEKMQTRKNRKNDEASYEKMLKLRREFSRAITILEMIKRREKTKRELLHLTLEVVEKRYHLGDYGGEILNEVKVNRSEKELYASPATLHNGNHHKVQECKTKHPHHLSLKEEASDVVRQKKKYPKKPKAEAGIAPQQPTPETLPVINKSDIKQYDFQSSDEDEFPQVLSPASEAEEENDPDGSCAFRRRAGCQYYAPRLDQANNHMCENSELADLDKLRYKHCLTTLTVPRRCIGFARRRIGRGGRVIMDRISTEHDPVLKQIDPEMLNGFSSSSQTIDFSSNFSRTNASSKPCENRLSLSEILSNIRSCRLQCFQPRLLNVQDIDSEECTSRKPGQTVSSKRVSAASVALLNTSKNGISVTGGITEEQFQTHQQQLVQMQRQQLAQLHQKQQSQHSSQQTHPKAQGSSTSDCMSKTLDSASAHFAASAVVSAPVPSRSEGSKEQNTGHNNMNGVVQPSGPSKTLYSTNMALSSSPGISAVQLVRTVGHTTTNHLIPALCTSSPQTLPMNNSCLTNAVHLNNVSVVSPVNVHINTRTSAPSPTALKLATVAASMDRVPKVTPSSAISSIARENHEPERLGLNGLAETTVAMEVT
# UniProt Q9DAT2: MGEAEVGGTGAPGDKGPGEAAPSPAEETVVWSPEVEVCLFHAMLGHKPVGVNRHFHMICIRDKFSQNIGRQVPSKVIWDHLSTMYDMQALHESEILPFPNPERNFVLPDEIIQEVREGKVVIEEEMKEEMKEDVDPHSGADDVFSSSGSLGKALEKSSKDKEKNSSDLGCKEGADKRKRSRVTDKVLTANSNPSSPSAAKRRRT
# Target: Tip60-H3F (Tip60 with a C-terminal 6-histidine-3-FLAG tag, from the endogenous gene) in ESCs (mouse (endogenous in ESCs)) (UniProt Q8CHK4)
# Test: affinity purification with mass spectrometry; double affinity purification (FLAG-M2 Agarose, then TALON Agarose) of Tip60-H3F from ESC nuclear extracts, untagged cells as control; SDS-PAGE, in-gel digestion, LC-MS/MS
row,Molecule,binding
1,Serine/threonine-protein kinase 38 (from UniProt Q91VJ4 1-465),binds
2,Enhancer of polycomb homolog 1 (from UniProt Q8C9X6 1-813),binds
3,RuvB-like 2 (from UniProt Q9WTM5 1-463),binds
4,Probable helicase senataxin (from UniProt A2AKX3 1-2646),binds
5,E1A-binding protein p400 (from UniProt Q8CHI8 1-3072),binds
6,Transformation/transcription domain-associated protein (from UniProt Q80YV3 1-2565),binds
7,RuvB-like 1 (from UniProt P60122 1-456),binds
8,Mortality factor 4-like protein 2 (from UniProt Q9R0Q4 1-288),binds
9,Inhibitor of growth protein 3 (from UniProt Q8VEK6 1-421),binds
10,"Spectrin beta chain, brain 1 (from UniProt Q62261 1-2363)",binds
11,DNA methyltransferase 1-associated protein 1 (from UniProt Q9JI44 1-468),binds
12,YEATS domain-containing protein 4 (from UniProt Q9CR11 1-227),binds
13,Leucine-rich repeat flightless-interacting protein 2 (from UniProt Q91WK0 1-415),binds
14,LIM domain and actin-binding protein 1 (from UniProt Q9ERG0 1-753),binds
15,Vacuolar protein sorting-associated protein 72 homolog (from UniProt Q62481 1-368),binds
16,"Spectrin alpha chain, brain (from UniProt P16546 1-2472)",binds
17,Tubulin beta-5 chain (from UniProt P99024 1-444),binds
18,Enhancer of polycomb homolog 2 (from UniProt Q8C0I4 1-808),binds
19,MRG-binding protein (from UniProt Q9DAT2 1-204),binds
20,"Ran GTPase-activating protein 1 (protein, UniProt P46061 1-589) MASEDIAKLAETLAKTQVAGGQLSFKGKGLKLNTAEDAKDVIKEIEEFDGLEALRLEGNTVGVEAARVIAKALEKKSELKRCHWSDMFTGRLRSEIPPALISLGEGLITAGAQLVELDLSDNAFGPDGVRGFEALLKSPACFTLQELKLNNCGMGIGGGKILAAALTECHRKSSAQGKPLALKVFVAGRNRLENDGATALAEAFGIIGTLEEVHMPQNGINHPGVTALAQAFAINPLLRVINLNDNTFTEKGGVAMAETLKTLRQVEVINFGDCLVRSKGAVAIADAVRGGLPKLKELNLSFCEIKRDAALVVAEAVADKAELEKLDLNGNALGEEGCEQLQEVMDSFNMAKVLASLSDDEGEDEDEEEEGEEDDEEEEDEEDEEDDDEEEEEQEEEEEPPQRGSGEEPATPSRKILDPNSGEPAPVLSSPTPTDLSTFLSFPSPEKLLRLGPKVSVLIVQQTDTSDPEKVVSAFLKVASVFRDDASVKTAVLDAIDALMKKAFSCSSFNSNTFLTRLLIHMGLLKSEDKIKAIPSLHGPLMVLNHVVRQDYFPKALAPLLLAFVTKPNGALETCSFARHNLLQTLYNI",binds
21,"Splicing factor 3B subunit 1 (protein, UniProt Q99NB9 1-1304) MAKIAKTHEDIEAQIREIQGKKAALDEAQGVGLDSTGYYDQEIYGGSDSRFAGYVTSIAATELEDDDDDYSSSTSLLGQKKPGYHAPVALLNDIPQSTEQYDPFAEHRPPKIADREDEYKKHRRTMIISPERLDPFADGGKTPDPKMNARTYMDVMREQHLTKEEREIRQQLAEKAKAGELKVVNGAAASQPPSKRKRRWDQTADQTPGATPKKLSSWDQAETPGHTPSLRWDETPGRAKGSETPGATPGSKIWDPTPSHTPAGAATPGRGDTPGHATPGHGGATSSARKNRWDETPKTERDTPGHGSGWAETPRTDRGGDSIGETPTPGASKRKSRWDETPASQMGGSTPVLTPGKTPIGTPAMNMATPTPGHIMSMTPEQLQAWRWEREIDERNRPLSDEELDAMFPEGYKVLPPPAGYVPIRTPARKLTATPTPLGGMTGFHMQTEDRTMKSVNDQPSGNLPFLKPDDIQYFDKLLVDVDESTLSPEEQKERKIMKLLLKIKNGTPPMRKAALRQITDKAREFGAGPLFNQILPLLMSPTLEDQERHLLVKVIDRILYKLDDLVRPYVHKILVVIEPLLIDEDYYARVEGREIISNLAKAAGLATMISTMRPDIDNMDEYVRNTTARAFAVVASALGIPSLLPFLKAVCKSKKSWQARHTGIKIVQQIAILMGCAILPHLRSLVEIIEHGLVDEQQKVRTISALAIAALAEAATPYGIESFDSVLKPLWKGIRQHRGKGLAAFLKAIGYLIPLMDAEYANYYTREVMLILIREFQSPDEEMKKIVLKVVKQCCGTDGVEANYIKTEILPPFFKHFWQHRMALDRRNYRQLVDTTVELANKVGAAEIISRIVDDLKDEAEQYRKMVMETIEKIMGNLGAADIDHKLEEQLIDGILYAFQEQTTEDSVMLNGFGTVVNALGKRVKPYLPQICGTVLWRLNNKSAKVRQQAADLISRTAVVMKTCQEEKLMGHLGVVLYEYLGEEYPEVLGSILGALKAIVNVIGMHKMTPPIKDLLPRLTPILKNRHEKVQENCIDLVGRIADRGAEYVSAREWMRICFELLELLKAHKKAIRRATVNTFGYIAKAIGPHDVLATLLNNLKVQERQNRVCTTVAIAIVAETCSPFTVLPALMNEYRVPELNVQNGVLKSLSFLFEYIGEMGKDYIYAVTPLLEDALMDRDLVHRQTASAVVQHMSLGVYGFGCEDSLNHLLNYVWPNVFETSPHVIQAVMGALEGLRVAIGPCRMLQYCLQGLFHPARKVRDVYWKIYNSIYIGSQDALIAHYPRIYNDDKNTYIRYDLDYIL",binds
22,"Splicing factor, proline- and glutamine-rich (protein, UniProt Q8VIJ6 1-699) MSRDRFRSRGGGGGGFHRRGGGGGRGGLHDFRSPPPGMGLNQNRGPMGPGPGGPKPPLPPPPPHQQQQQPPPQQPPPQQPPPHQQPPPHQPPHQQPPPPPQESKPVVPQGPGSAPGVSSAPPPAVSAPPANPPTTGAPPGPGPTPTPPPAVPSTAPGPPPPSTPSSGVSTTPPQTGGPPPPPAGGAGPGPKPGPGPGGPKGGKMPGGPKPGGGPGMGAPGGHPKPPHRGGGEPRGGRQHHAPYHQQHHQGPPPGGPGPRTEEKISDSEGFKANLSLLRRPGEKTYTQRCRLFVGNLPADITEDEFKRLFAKYGEPGEVFINKGKGFGFIKLESRALAEIAKAELDDTPMRGRQLRVRFATHAAALSVRNLSPYVSNELLEEAFSQFGPIERAVVIVDDRGRSTGKGIVEFASKPAARKAFERCSEGVFLLTTTPRPVIVEPLEQLDDEDGLPEKLAQKNPMYQKERETPPRFAQHGTFEYEYSQRWKSLDEMEKQQREQVEKNMKDAKDKLESEMEDAYHEHQANLLRQDLMRRQEELRRMEELHSQEMQKRKEMQLRQEEERRRREEEMMIRQREMEEQMRRQREESYSRMGYMDPRERDMRMGGGGTMNMGDPYGSGGQKFPPLGGGGGIGYEANPGVPPATMSGSMMGSDMRTERFGQGGAGPVGGQGPRGMGPGTPAGYGRGREEYEGPNKKPRF",binds
23,"Ras-related protein Rab-5C (protein, UniProt P35278 1-216) MAGRGGAARPNGPAAGNKICQFKLVLLGESAVGKSSLVLRFVKGQFHEYQESTIGAAFLTQTVCLDDTTVKFEIWDTAGQERYHSLAPMYYRGAQAAIVVYDITNTDTFARAKNWVKELQRQASPNIVIALAGNKADLASKRAVEFQEAQAYADDNSLLFMETSAKTAMNVNEIFMAIAKKLPKNEPQNAAGAPGRTRGVDLQESNPASRSQCCSN",binds
24,"Non-POU domain-containing octamer-binding protein (protein, UniProt Q99K48 1-473) MQSNKAFNLEKQNHTPRKHHQHHHQQHHQQQQQQQQQQPPPPIPANGQQASSQNEGLTIDLKNFRKPGEKTFTQRSRLFVGNLPPDITEEEMRKLFEKYGKAGEVFIHKDKGFGFIRLETRTLAEIAKVELDNMPLRGKQLRVRFACHSASLTVRNLPQYVSNELLEEAFSVFGQVERAVVIVDDRGRPSGKGIVEFSGKPAARKALDRCSEGSFLLTTFPRPVTVEPMDQLDDEEGLPEKLVIKNQQFHKEREQPPRFAQPGSFEYEYAMRWKALIEMEKQQQDQVDRNIKEAREKLEMEMEAARHEHQVMLMRQDLMRRQEELRRMEELHNQEVQKRKQLELRQEEERRRREEEMRRQQEEMMRRQQEGFKGTFPDAREQEIRMGQMAMGGAMGINNRGAMPPAPVPPGTPAPPGPATMMPDGTLGLTPPTTERFGQAATMEGIGAIGGTPPAFNRPAPGAEFAPNKRRRY",binds
25,"Heterogeneous nuclear ribonucleoprotein F (protein, UniProt Q9Z2X1 1-415) MMLGPEGGEGYVVKLRGLPWSCSIEDVQNFLSDCTIHDGVAGVHFIYTREGRQSGEAFVELESEDDVKLALKKDRESMGHRYIEVFKSHRTEMDWVLKHSGPNSADSANDGFVRLRGLPFGCTKEEIVQFFSGLEIVPNGITLPVDPEGKITGEAFVQFASQELAEKALGKHKERIGHRYIEVFKSSQEEVRSYSDPPLKFMSVQRPGPYDRPGTARRYIGIVKQAGLDRMRSGAYSAGYGGYEEYSGLSDGYGFTTDLFGRDLSYCLSGMYDHRYGDSEFTVQSTTGHCVHMRGLPYKATENDIYNFFSPLNPVRVHIEIGPDGRVTGEADVEFATHEEAVAAMSKDRANMQHRYIELFLNSTTGASNGAYSSQVMQGMGVSAAQATYSGLESQSVSGCYGAGYSGQNSMGGYD",binds
